Literature values as cited in patent US11285227B2, “Trifunctional constructs with tunablepharmacokinetics useful in imaging and anti-tumor therapies” (CORNELL UNIVERSITY, priority 2017, dated 2022).
Some of these results come from one statement about several compounds together. For at least one compound, name, drawing or mass did not settle the structure.

Details: nude mice; cited from earlier work

Compound: O=C([O-])CN1CCN(CC(=O)[O-])CCN(CC(=O)NCC2CCC(C(=O)N[C@@H](Cc3ccc4ccccc4c3)C(=O)NCCCC[C@H](NC(=O)N[C@@H](CCC(=O)O)C(=O)O)C(=O)O)CC2)CCN(CC(=O)[O-])CC1.[177Lu+3] (stereo partly shown) [^177Lu-PSMA-617]
- Early kidney concentrations: ≥ 100 % ID/g
